Some of the results follow. The data scatter; read single values as rough.
These targets were tested with ClCC(=O)N[C@@H]1CCCc2ccccc12 (assay: log2 mean competition ratio of IA-DTB cysteine labelling (DMSO/compound) (log2 ratio); higher = stronger cysteine engagement by compound). Details: 50 µM; treatment time: 4 h; cell line lysate: HEK293T.
Method: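 IA-DTB competitive cysteine chemoproteomics in HEK293T RIPA lysate. Lysates were treated with compound 29 or 30 at 50 or 200 µM for 4 h, then IA-DTB (500 µM, 1 h), trypsin-digested, NeutrAvidin-enriched and analysed by diaPASEF. Competition ratio = intensity DMSO / intensity compound (n=4 treated, n=64 DMSO); binding: mean log2 CR ≥ 1 and p ≤ 0.05 plus QC filters. Target is the cysteine site.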

Protein sequences, listed by entry. Tags and fused reporters are not part of them. Lines headed by an entry give the natural chain unless they say otherwise; changes in a name come on top. Residues count along the entry.
UniProt Q5VSL9: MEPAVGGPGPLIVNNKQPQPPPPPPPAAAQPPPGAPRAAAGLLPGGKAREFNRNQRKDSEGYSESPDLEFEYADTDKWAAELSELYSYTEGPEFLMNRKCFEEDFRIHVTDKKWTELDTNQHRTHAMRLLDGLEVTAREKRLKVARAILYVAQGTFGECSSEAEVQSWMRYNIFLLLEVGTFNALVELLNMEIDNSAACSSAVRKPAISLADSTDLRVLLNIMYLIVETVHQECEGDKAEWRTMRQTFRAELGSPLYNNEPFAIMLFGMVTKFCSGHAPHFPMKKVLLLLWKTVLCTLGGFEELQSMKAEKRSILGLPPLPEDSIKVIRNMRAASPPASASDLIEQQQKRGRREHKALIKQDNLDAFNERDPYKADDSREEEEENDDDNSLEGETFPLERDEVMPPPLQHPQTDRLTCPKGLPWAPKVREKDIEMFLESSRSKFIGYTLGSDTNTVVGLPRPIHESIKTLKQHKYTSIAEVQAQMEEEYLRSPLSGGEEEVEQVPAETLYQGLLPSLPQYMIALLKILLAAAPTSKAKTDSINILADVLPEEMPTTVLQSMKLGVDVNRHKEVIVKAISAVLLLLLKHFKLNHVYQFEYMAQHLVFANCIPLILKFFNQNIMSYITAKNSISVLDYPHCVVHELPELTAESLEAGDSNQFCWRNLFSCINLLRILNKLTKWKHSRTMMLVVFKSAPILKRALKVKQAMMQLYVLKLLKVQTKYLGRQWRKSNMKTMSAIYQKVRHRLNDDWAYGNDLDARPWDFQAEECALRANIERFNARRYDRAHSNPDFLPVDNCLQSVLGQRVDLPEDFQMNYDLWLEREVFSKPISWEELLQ
UniProt Q08945: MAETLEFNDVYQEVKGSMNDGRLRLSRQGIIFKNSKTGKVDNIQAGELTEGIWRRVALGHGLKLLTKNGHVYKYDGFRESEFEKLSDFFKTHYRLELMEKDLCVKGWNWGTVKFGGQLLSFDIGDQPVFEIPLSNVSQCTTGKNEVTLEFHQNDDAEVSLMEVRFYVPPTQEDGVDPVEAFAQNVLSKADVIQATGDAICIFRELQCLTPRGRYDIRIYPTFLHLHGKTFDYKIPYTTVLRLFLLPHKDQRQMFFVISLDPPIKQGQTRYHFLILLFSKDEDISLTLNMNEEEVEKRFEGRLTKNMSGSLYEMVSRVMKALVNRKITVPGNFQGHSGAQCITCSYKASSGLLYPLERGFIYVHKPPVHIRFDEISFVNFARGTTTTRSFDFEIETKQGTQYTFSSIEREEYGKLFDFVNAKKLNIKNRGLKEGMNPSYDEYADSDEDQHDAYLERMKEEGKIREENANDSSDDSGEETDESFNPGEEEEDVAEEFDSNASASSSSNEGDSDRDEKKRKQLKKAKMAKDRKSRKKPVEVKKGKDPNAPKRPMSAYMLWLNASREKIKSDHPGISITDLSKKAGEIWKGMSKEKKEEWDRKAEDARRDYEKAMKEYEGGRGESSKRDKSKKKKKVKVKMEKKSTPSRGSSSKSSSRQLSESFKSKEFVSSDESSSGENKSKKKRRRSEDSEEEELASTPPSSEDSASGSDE
UniProt Q8N5C6: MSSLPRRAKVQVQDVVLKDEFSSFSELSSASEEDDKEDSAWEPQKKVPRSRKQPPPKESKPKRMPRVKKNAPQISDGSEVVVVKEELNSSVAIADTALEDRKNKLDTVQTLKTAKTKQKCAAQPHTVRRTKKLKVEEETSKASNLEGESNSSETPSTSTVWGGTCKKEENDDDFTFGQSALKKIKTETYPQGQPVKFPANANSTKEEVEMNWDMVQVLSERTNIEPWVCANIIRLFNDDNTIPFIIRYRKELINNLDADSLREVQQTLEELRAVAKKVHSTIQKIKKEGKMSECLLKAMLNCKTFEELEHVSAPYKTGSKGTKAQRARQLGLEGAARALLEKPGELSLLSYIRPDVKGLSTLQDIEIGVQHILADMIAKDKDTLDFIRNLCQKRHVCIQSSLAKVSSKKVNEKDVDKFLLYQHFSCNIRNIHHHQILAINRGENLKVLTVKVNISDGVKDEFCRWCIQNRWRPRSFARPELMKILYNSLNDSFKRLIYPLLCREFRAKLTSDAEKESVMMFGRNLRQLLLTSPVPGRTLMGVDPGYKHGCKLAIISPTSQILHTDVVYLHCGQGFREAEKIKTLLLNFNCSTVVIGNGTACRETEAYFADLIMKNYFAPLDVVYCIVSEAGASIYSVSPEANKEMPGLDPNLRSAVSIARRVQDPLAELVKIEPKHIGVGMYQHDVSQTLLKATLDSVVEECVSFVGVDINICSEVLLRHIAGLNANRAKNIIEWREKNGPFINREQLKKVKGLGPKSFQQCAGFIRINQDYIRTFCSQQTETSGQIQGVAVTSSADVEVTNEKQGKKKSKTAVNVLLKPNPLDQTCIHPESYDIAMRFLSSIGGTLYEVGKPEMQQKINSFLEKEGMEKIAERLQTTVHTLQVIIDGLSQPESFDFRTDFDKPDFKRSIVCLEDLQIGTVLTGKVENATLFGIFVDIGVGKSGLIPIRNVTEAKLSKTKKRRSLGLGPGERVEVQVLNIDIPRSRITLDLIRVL
UniProt Q9NRL3: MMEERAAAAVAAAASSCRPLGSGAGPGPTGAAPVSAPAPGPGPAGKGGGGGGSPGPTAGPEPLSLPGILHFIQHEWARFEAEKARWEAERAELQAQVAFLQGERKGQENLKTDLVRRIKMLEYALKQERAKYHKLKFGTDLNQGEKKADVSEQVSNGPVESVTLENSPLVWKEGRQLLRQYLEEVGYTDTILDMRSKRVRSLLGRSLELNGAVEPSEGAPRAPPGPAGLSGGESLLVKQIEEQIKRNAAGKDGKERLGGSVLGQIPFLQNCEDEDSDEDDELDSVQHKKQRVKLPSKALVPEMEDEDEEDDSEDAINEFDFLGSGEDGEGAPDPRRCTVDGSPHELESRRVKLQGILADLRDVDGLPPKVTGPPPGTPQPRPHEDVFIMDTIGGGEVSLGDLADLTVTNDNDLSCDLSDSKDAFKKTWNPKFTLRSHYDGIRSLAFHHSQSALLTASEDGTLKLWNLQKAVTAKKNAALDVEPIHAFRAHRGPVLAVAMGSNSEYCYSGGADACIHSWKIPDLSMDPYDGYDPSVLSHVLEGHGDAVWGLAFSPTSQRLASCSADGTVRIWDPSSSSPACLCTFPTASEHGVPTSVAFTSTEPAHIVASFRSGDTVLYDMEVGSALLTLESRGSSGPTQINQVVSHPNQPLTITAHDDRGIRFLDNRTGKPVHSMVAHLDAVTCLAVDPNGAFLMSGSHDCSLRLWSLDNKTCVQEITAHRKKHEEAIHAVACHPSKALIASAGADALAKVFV
UniProt Q5M775, 355-376: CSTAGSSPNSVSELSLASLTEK
UniProt Q12846: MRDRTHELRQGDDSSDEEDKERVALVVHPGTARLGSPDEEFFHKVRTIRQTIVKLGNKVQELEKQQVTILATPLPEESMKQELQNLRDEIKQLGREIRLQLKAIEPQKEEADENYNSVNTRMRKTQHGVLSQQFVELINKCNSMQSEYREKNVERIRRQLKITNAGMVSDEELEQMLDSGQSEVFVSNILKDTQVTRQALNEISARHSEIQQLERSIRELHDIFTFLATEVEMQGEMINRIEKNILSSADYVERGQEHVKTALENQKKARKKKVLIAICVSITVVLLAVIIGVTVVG
UniProt Q6ZWJ1: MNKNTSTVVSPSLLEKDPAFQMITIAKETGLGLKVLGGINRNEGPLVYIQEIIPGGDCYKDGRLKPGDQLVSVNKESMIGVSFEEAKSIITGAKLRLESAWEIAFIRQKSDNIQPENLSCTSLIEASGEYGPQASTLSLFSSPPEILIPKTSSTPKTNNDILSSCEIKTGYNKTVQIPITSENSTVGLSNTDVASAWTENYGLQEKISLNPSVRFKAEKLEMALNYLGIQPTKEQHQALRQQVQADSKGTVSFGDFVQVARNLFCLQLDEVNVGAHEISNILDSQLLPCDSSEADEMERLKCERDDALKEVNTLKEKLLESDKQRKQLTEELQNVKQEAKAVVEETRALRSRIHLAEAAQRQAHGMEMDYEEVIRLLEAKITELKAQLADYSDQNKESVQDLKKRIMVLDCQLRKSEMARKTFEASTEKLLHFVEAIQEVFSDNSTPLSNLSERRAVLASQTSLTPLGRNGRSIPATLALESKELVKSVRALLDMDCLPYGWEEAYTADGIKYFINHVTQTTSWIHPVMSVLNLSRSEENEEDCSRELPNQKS
UniProt Q8IX01: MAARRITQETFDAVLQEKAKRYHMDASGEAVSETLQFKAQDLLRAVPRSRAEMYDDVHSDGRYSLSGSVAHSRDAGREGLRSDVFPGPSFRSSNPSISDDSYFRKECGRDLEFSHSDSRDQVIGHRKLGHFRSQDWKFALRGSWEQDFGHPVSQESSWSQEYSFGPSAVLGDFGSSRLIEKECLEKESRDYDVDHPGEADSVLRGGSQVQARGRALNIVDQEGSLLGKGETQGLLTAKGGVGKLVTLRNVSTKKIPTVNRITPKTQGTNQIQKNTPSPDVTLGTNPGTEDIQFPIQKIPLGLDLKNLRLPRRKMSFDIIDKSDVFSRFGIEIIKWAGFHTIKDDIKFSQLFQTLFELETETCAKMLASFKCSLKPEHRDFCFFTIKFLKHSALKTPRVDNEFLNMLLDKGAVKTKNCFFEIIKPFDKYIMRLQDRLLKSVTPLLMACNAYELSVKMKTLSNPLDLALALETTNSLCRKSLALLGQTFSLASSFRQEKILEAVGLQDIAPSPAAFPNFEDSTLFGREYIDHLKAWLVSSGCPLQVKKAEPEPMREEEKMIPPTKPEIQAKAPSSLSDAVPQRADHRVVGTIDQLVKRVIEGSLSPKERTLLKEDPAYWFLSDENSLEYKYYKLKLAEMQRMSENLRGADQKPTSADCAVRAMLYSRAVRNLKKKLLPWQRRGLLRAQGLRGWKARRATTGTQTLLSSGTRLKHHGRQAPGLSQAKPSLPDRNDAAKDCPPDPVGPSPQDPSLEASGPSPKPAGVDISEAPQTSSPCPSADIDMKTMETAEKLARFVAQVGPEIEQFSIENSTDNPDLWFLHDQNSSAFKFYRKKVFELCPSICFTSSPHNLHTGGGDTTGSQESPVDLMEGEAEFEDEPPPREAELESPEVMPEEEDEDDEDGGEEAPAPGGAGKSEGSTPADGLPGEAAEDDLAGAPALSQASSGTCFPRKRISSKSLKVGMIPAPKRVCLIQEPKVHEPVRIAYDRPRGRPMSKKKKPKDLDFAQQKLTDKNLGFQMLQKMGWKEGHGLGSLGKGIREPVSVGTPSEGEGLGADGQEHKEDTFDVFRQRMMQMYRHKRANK
UniProt Q658P3: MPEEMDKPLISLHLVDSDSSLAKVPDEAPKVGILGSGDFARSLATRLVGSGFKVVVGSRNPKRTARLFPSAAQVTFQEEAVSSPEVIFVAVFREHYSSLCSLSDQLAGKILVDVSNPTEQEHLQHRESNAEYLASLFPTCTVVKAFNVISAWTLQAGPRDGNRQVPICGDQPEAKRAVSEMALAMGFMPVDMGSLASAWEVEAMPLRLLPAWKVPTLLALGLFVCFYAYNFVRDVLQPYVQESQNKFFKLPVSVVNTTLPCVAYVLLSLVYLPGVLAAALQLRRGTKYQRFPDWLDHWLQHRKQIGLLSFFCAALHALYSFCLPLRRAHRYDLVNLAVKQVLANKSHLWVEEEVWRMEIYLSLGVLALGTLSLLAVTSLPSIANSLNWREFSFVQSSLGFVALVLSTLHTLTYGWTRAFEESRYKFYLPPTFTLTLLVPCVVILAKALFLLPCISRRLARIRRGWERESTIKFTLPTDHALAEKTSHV
UniProt Q13242, whole entry, looked up: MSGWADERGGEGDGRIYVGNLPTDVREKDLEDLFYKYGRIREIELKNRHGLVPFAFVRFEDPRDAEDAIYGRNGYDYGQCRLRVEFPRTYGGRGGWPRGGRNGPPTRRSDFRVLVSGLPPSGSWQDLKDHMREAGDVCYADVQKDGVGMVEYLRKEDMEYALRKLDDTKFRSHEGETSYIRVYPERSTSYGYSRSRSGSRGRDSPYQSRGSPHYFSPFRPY
UniProt Q9NUQ6: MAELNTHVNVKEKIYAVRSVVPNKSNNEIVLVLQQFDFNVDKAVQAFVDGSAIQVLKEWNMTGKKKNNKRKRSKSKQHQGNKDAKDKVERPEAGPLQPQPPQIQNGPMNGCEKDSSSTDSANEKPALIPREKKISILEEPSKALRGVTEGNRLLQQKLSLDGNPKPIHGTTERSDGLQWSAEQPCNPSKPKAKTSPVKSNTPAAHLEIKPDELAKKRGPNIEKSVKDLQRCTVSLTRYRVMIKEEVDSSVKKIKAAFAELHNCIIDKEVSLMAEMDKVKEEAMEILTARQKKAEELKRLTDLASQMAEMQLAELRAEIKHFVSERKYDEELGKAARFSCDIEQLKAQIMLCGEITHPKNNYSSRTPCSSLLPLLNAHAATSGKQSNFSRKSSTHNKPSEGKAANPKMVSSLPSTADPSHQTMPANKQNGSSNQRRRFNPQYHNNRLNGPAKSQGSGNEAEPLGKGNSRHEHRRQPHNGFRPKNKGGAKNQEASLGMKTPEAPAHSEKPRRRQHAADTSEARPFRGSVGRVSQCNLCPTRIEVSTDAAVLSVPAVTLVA

Target | log2 mean competition ratio
STK11IP C918 (UniProt Q8N1F8) | 0.181
STRIP1 C100 (UniProt Q5VSL9) | -0.187
SSRP1 C200 (UniProt Q08945) | -0.185
SPG21 C204 (UniProt Q9NZD8) | 0.16
SRBD1 C229 (UniProt Q8N5C6) | 0.00877
SYNRG C1194 (UniProt Q9UMZ2) | -0.199
STRN4 C713 (UniProt Q9NRL3) | -0.112
SPECC1 C355 (UniProt Q5M775) | 0.0411
STK4 C80 (UniProt Q13043) | -0.0734
STRN4 C337 (UniProt Q9NRL3) | 0.136
SPECC1 C740 (UniProt Q5M775) | -0.0918
STX4 C141 (UniProt Q12846) | 0.00889
STXBP4 C165 (UniProt Q6ZWJ1) | -0.159
SUPT20H C255 (UniProt Q8NEM7) | -0.321
SUGP2 C970 (UniProt Q8IX01) | -0.0502
STEAP3 C168 (UniProt Q658P3) | -0.362
SRSF9 C80 (UniProt Q13242) | -0.0744
STK39 C525 (UniProt Q9UEW8) | -0.058
SPATS2L C185 (UniProt Q9NUQ6) | 0.0551
SRBD1 C120 (UniProt Q8N5C6) | 0.584

Same assay, conditions: 200 µM; treatment time: 4 h; cell line lysate: HEK293T

Target | log2 mean competition ratio
STK11IP C918 (UniProt Q8N1F8) | 0.0178
STRIP1 C100 (UniProt Q5VSL9) | 0.0766
SSRP1 C200 (UniProt Q08945) | 0.000919
SPG21 C204 (UniProt Q9NZD8) | -0.321
SRBD1 C229 (UniProt Q8N5C6) | 0.00508
SYNRG C1194 (UniProt Q9UMZ2) | -0.239
STRN4 C713 (UniProt Q9NRL3) | 0.0707
SPECC1 C355 (UniProt Q5M775) | -0.0235
STK4 C80 (UniProt Q13043) | -0.247
STRN4 C337 (UniProt Q9NRL3) | 0.0428
SPECC1 C740 (UniProt Q5M775) | -0.27
STX4 C141 (UniProt Q12846) | -0.0417
STXBP4 C165 (UniProt Q6ZWJ1) | 0.0208
SUPT20H C255 (UniProt Q8NEM7) | 0.284
SUGP2 C970 (UniProt Q8IX01) | 0.246
STEAP3 C168 (UniProt Q658P3) | 0.0586
SRSF9 C80 (UniProt Q13242) | 0.161
STK39 C525 (UniProt Q9UEW8) | -0.215
SPATS2L C185 (UniProt Q9NUQ6) | 0.0308
SRBD1 C120 (UniProt Q8N5C6) | -0.247
